## Primary screen of a compound library

Data taken from ChEMBL document CHEMBL3988442, “University of Dundee, Small-Polar-MMV Screening Library” (2021).

Results are given as percent effect.
How 0% and 100% were set is not recorded. Most values in the screen are low, and negative values occur.
This is an unselected part of the compounds tested.
A dash means the value is not listed here; it may have been measured.

T. brucei: 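Whole-parasite assay of Trypanosoma brucei over 72 hours; the read-out is not stated. Tested at 30 µM. Direction is inferred from retests: higher values go with stronger inhibition. Values scatter widely below zero; nearly all retest evidence comes from the higher of the two concentrations used. Size under these conditions: about 64,000 compounds, about 940 of them at 50% or above in at least one test.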
Toxoplasma: 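Assay of Toxoplasma gondii numbers, read through their beta-galactosidase reporter with a colour substrate. Tested at 10 µM. Higher reads as fewer parasites (inferred from which compounds were picked for retests). Of about 67,000 compounds tested this way, about 260 (0.38%) reached 50% or more in at least one test.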

compound	T. brucei	Toxoplasma
COc1ccc(CN2CCCC2c2cccc(F)c2)c(OC)c1OC (stereo unspecified)	5.87	29.11
CSCCC(=O)N[C@H]1CC[C@H](Nc2nccc(-c3ccncc3)n2)C1	-40.77	4.617
CCc1nnc2ccc(NCC3(N4CCCCC4)CCOCC3)nn12	12.18	0.2938
CC(=O)c1c(O)n(C)c2ccccc12	-25.53	11.65
CCN1CCCC1CN(Cc1ccon1)CC1CCN(CCOC)CC1 (stereo unspecified)	-16.56	-3.441
Cc1cnn(CC2CCCN2Cc2nc(N)c3ccccc3n2)c1 (stereo unspecified)	51.47	-8.263
Cc1c(Cl)c(C(=O)NCc2ccc(F)cc2)nn1C	-32.72	4.56
O=C(c1cccc(=O)[nH]1)N(Cc1ccsc1)CC1CCCO1 (stereo unspecified)	-16.08	-3.231
CN(C)CCOCC1CN(C(=O)c2ccnnc2)Cc2ccnn2C1.O=C(O)C(F)(F)F.O=C(O)C(F)(F)F (stereo unspecified)	-20.3	4.563
OC1(CNCCc2csc(-c3ccncc3)n2)CCCNC1 (stereo unspecified)	19.3	-15.25
N#Cc1ccc(S(=O)(=O)N2CC(CC(=O)O)c3ccccc32)cc1 (stereo unspecified)	-28.25	-28.39
Cc1nn(C)c(C)c1CNCc1ccc(N2CCOCC2)nc1.Cl	5.453	16.7
Cc1[nH]ncc1CCCNC(=O)Nc1ccc2c(c1)OC1(CCCC1)O2	1.8	-2.528
Cc1cnn(CCNc2cnc3ccccc3n2)c1	-27.95	9.257
O=C(NCc1csc(-c2cnccn2)n1)c1cnn2c1CCCC2	3.15	-29.5
Cc1nc(SCC(=O)Nc2ccc(C(N)=O)cc2)c(C#N)c(C)c1C	-14.04	30.35
Cn1cc(NS(=O)(=O)CC2CCCCO2)cn1 (stereo unspecified)	5.399	-1.25
c1cnn(Cc2nnc(C3CCN(C4CCOCC4)CC3)n2C2CC2)c1	22.34	-1.322
c1ccc(-c2nc(CN3CCCCC3Cn3cncn3)co2)cc1 (stereo unspecified)	0.7445	-4.992
Cc1ccc(OC2(C(=O)NC(C)Cc3ccncc3)CCNCC2)cc1 (stereo unspecified)	-4.697	3.402
Cc1cccc(CN(C(=O)CS(C)(=O)=O)C(C)C)c1	-24.15	-7.246
CC(Cn1ccnc1)NCc1csc2c1CCCC2 (stereo unspecified)	-36.82	1.955
COCCc1noc(-c2cc(Cl)c3c(c2)OCCCO3)n1	-24.27	-13.2
CCn1ccc(-c2cc(C(=O)O)n3nc(C)c(Cl)c3n2)n1	-30.22	4.94
Cc1cc(C(=O)N[C@H](C)c2onc(C)c2C(=O)O)c(C)o1.Cl	-31.63	-0.4214
CC1CCc2nc(NC(=O)CN(C)C(=O)c3ccco3)sc2C1 (stereo unspecified)	10.65	-12.9
O=C(O)C(F)(F)F.[H][C@@]12CCN(Cc3ccoc3)[C@]1([H])CC[C@H](C(=O)Nc1cnccn1)O2	-117.8	20.42
CNC(=O)N1CCC2(CC1)CNc1ccc(F)cc12.Cl	-	-10.07
CC(C)N(C)S(=O)(=O)N1CCCC1CC(=O)c1cccs1 (stereo unspecified)	-22.08	-4.308
O=C(NCCc1noc(C2CCCO2)n1)c1cn2ccsc2n1 (stereo unspecified)	32.49	-42.99
O=C1N(C2CCCCC2)CCCC12CCN(S(=O)(=O)c1cccnc1)C2 (stereo unspecified)	-15.16	11.38
Cc1cc(N2CCC3(CCC(=O)N(CCCO)C3)CC2)nc(N(C)C)n1	5.36	2.966
CCOc1ccnc(N[C@@H](Cc2ccccc2)C(N)=O)n1	-22.22	-34.21
O=C(c1cnc(-c2ccccc2)nc1)N1CCOC2(CCCC2)C1	-26.14	0.8115
Cc1nc(CN2CCN(C(=O)CCc3ccco3)CC2)cs1	5.955	4.068
Cc1cnc(C)c(Oc2ccc(CN3CCCC3)cc2Cl)n1	-22.21	1.627
Cc1ccc2[nH]c(=O)c(CN(C)Cc3cc(C4CC4)[nH]n3)cc2c1	2.141	1.048
C[C@@H]1CN(C(=O)c2cn(CCN3CCCCC3)nn2)C[C@H](C)O1	-17.17	-6.325
CCN1CC(C(=O)N2CCC(Oc3ccccc3C)CC2)CC1=O (stereo unspecified)	-5.493	10.4
Cc1nn(C)c(N2CCOCC2)c1CNCc1ccc(C(C)O)cc1 (stereo unspecified)	-	-0.958
COc1ccc(N(C(=O)Cc2ccc(C)nc2)C(C)C)cc1F	-40.86	-2.58
Cc1n[nH]c(C2CN(Cc3csc(C4CC4)n3)CCO2)n1 (stereo unspecified)	-277.2	2.504
CCNc1ncc(C(=O)N(C)CCc2nc3cc(Cl)ccc3[nH]2)cn1	-	5.671
Cc1noc(C)c1CNC(=O)Nc1ccc(N2CCOC2=O)cc1	-7.616	-13.04
COCCCNC(=O)Nc1c(C)cccc1C(C)C	-69.49	34.36
Cc1nn(C)cc1-c1cc(-c2cn(C)nc2C)n(CC(=O)NC2CC2)n1	-5.706	-11.24
CCCC(O)CN1CCC(=O)N(CC2CC2)Cc2cc3c(cc21)OCO3 (stereo unspecified)	-7.232	-13.83
CC(C)Cc1nc(CN2CCC3(CCCO3)CCC2=O)no1 (stereo unspecified)	17.65	3.475
CC(NCc1cccnc1)c1cc2c(cc1Br)OCCO2 (stereo unspecified)	-18.7	-13.69
CNC(=O)CN1CCC(NC(=O)Cn2cc(C)c3ccccc32)CC1	-33.27	-3.435
CN(C)c1nc(N2CCCC2)nc2c1CCN(C(=O)c1ccco1)CC2.O=C(O)C(F)(F)F.O=C(O)C(F)(F)F	-34.12	-1.375
[H][C@@]12CCN(C(=O)CN(C)C)C[C@]1(COCC1CC1)CCO2	-14.8	1.011
Cc1nc(C)n(CC2CCCN2Cc2cscn2)n1 (stereo unspecified)	-1.802	-1.949
COc1c(C)cnc(CN2CCC(N(C)C(C)C(N)=O)CC2)c1C (stereo unspecified)	-15.03	-0.1059
CN(CC(=O)NC(N)=O)CC1(c2ccc(Br)cc2)CC1	-11.58	10.96
COc1ccc(C(=O)N2CCC3(CCC(=O)N(C(C)C)C3)CC2)cc1C	-7.205	-11.27
CC(O)CN1CCC(CN(C)Cc2cccc(C#N)c2)CC1 (stereo unspecified)	-14.74	0.7551
c1ccc2nc(CN3CCCC3c3noc(C4CC4)n3)ccc2c1 (stereo unspecified)	-	19.79
CCc1cc(NCCNc2ccncc2C)n2nc(C)c(C)c2n1	14.18	8.418
CC1CN(CC(=O)Nc2nncs2)CCN1c1nccs1 (stereo unspecified)	-99.21	-0.7539
CC(C)N(C(=O)CCc1cccc(F)c1)C1CCOCC1	-5.846	-4.956
CSc1ccc(C(CNC(C)=O)N2CCc3sccc3C2)cc1 (stereo unspecified)	7.525	0.7422
[H][C@]12CC[C@]([H])(CN(C(=O)C3CCC3)C1)N(C(=O)c1cccc(OCC)c1)C2	-25.55	5.434
Cc1nc[nH]c1C(=O)N1CC[C@@H](NC(=O)c2ccccn2)[C@H](O)C1	-45.61	4.578
COCC(=O)N1CCc2c(CNS(C)(=O)=O)n[nH]c2C1	5.133	3.818
[H][C@@]12CS(=O)(=O)C[C@]1([H])N(C(=O)Cc1ccc(O)c(Cl)c1)CCN2CC1CC1	-60.22	3.14
CC(C)CN1C(=O)C2(CCN(Cc3ccoc3)C2)c2ccccc21.O=C(O)C(F)(F)F (stereo unspecified)	-10.51	15.51
O=c1cc(N2CCCC2)cnn1CCc1cccc(F)c1	-20.45	-12.91
Cc1ccn(-c2ccccc2NCc2scnc2C)n1	-24.29	-5.689
CCN(C)[C@H]1CN(C(=O)c2cccc(N3CCS(=O)(=O)CC3)c2)C[C@@H]1O	28.33	-14.03
COc1cn(CC(=O)N2CCN(c3ccc(F)cc3)CC2)c(C)cc1=O	-13.39	-24.14
Cc1ncc(CN2CCC(O)(c3ccccc3F)CC2)cn1	1.637	-30.75
CN1C[C@@H](F)[C@@H](OCc2nc3ccccc3[nH]2)C1	-3.693	11.58
CC1=C(C(=O)NCCc2n[nH]c3c2CCCC3)C(C)NC(=O)N1 (stereo unspecified)	-32.65	-0.9074
CCn1cnnc1CN(C)Cc1c[nH]nc1-c1ccc(F)cc1	2.032	12.88
CCN1CCc2c(cccc2NC(=O)N(C)C2CCSC2)C1 (stereo unspecified)	-30.58	-4.336
CCc1nc2ccccc2c(=O)n1CC1(O)CCN(CC(=O)OC)CC1	-3.452	5.181

For reference, 5 entries once more:

compound	T. brucei	Toxoplasma
CN(CC(=O)NC(N)=O)CC1(c2ccc(Br)cc2)CC1	-11.58	10.96
O=C(O)C(F)(F)F.[H][C@@]12CCN(Cc3ccoc3)[C@]1([H])CC[C@H](C(=O)Nc1cnccn1)O2	-117.8	20.42
Cc1cc(N2CCC3(CCC(=O)N(CCCO)C3)CC2)nc(N(C)C)n1	5.36	2.966
Cc1ccn(-c2ccccc2NCc2scnc2C)n1	-24.29	-5.689
CNC(=O)N1CCC2(CC1)CNc1ccc(F)cc12.Cl	-	-10.07